Assay results published in PubChem BioAssay AID493014 (National Center for Advancing Translational Sciences (NCATS), 2011).
The other results are listed elsewhere or left out. Further columns of the screen follow, without active or inactive calls. The list favours compounds with an active or inconclusive main result. Words in brackets tell the shape of the fitted curve; partial curves, single points and poor fits give uncertain potencies.

Assay: qHTS Assay to Find Inhibitors of Chronic Active B-Cell Receptor Signaling
Conditions: ABC-DLBCL IkBa-CBG/CBR reporter, luminescence ratio (green luciferase fused to IkBa over red control in TMD8 lymphoma cells), 4 h
Summary of the method: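 Doxycycline induced both beetle luciferases in TMD8 lymphoma cells; IKK-driven degradation limits the IkappaBalpha-fused green signal, while red luminescence normalises for cell number and nonspecific effects. Compounds tested up to 46 uM, 4 hrs.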

[1] = measured here: CBR red luminescence, cell number

| Compound | AC50 [1] | AC50 (measured here: IkBa-CBG green luminescence) |
| --- | --- | --- |
| CC(C)(C)NCC(O)(c1ccc(Cl)cc1)c1ccc(Cl)cc1 | 35.5 µM [falling, single point] |  |
| Cc1cc(C(=O)Cn2nnc3ccccc3c2=O)c(C)n1Cc1cccs1 | 35.5 µM [falling, single point] |  |
| O=C(O)c1ccc(COc2ccc(Cl)cc2)o1 | 14.6 µM [falling, partial curve, poor fit] |  |
| CC(C)(C)c1ccc(/C=N/N2CCN(c3ccccn3)CC2)cc1 | 11.2 µM [rising, single point] |  |
| O=C(c1ccc(Cl)cc1)c1ccc(OCC(O)CN2CCCCC2)cc1 (stereo unspecified) | 2.06 µM [rising, full curve, poor fit] |  |
| c1ccc2c(Nc3ccc4c(c3)OCCO4)c3c(nc2c1)CCC3 | 22.4 µM [falling, single point] |  |
| CCOc1cc(/C=N/NC(=O)c2cccs2)ccc1OC(=O)N1CCOCC1 | 1.3 µM [falling, full curve] |  |
| COc1cc(/C=N/N2C(=O)C3C4c5ccccc5C(c5ccccc54)C3C2=O)ccc1O (stereo unspecified) | 14.6 µM [falling, partial curve, poor fit] |  |
| CCCCNC(=O)c1cc(-c2ccc(OC)cc2)on1 | 5.8 µM [falling, full curve] |  |
| CC1CCCCC1NC(=O)c1cc2ccccc2o1 (stereo unspecified) | 10.3 µM [falling, partial curve] |  |
| O=C(COc1ccc(Cl)cc1)NCc1nnc(SCC(=O)Nc2ccccc2F)o1 | 0.631 µM [falling, full curve, poor fit] |  |
| C=CCn1c(SCC(=O)NNC(=O)Nc2cccc(Cl)c2)nnc1-c1ccccc1 | 3.55 µM [rising, partial curve, poor fit] |  |
| CC(OC(=O)c1cc[n+]([O-])cc1)C(=O)Nc1ccc(Cl)cn1 (stereo unspecified) | 3.98 µM [falling, full curve, poor fit] |  |
| O=C(c1ccccc1)N1CCCC(c2ccc(Cl)cc2)=N1 | 3.98 µM [falling, partial curve, poor fit] |  |
| O=C(Nc1ccc(OCc2ccccc2)cc1)Nc1ccccc1C(=O)NCCCN1CCOCC1 | 2.51 µM [falling, full curve] |  |
| CC1(C)NC(=O)N(c2ccccc2Cl)C1(C)NO (stereo unspecified) | 0.00517 µM [falling, full curve, poor fit] |  |
| CCN(CC)C(=O)c1[nH]cnc1C(=O)Nc1ccc(OC)cc1 | 12.6 µM [rising, partial curve, poor fit] |  |
| O=[N+]([O-])c1ccc(-c2nc(Nc3ccc(O)cc3)c3ccccc3n2)cc1 | 5.62 µM [rising, single point] |  |
| CCOC(=O)c1cc(CC)sc1/N=C/C1=C(O)CC(C)(C)CC1=O | 2.06 µM [rising, full curve] |  |
| CCn1nc([N+](=O)[O-])c2c(-c3nc4ccccc4o3)c(N)n(CCCOC)c2c1=O | 10 µM [rising, partial curve, poor fit] |  |

| Compound | AC50 [1] | AC50 (measured here: IkBa-CBG green luminescence) |
| --- | --- | --- |
| COc1ccccc1N1CCN(S(=O)(=O)c2ccc3c(c2)NC(=O)C(C)S3)CC1 (stereo unspecified) | 0.355 µM [falling, partial curve, poor fit] |  |
| COc1ccc(N2C(=O)[C@@H]3Cc4ccccc4CN3C2=O)cc1 | 0.501 µM [rising, partial curve, poor fit] |  |
| Nc1ccc(C(=O)Nc2ccc3nc(-c4cccnc4)[nH]c3c2)cc1 | 1.58 µM [falling, partial curve] |  |
| CC(=O)N1N=C(c2cccc(NS(=O)(=O)c3ccc(C)cc3)c2)CC1c1ccco1 (stereo unspecified) | 11.2 µM [falling, partial curve, poor fit] |  |
| CC(CCc1ccc(O)cc1)NCCC(c1ccccc1)c1ccccc1 (stereo unspecified) | 35.5 µM [falling, single point] |  |
| O=C1CN(C(=O)/C=C/c2ccco2)c2ccccc2N1 | 15.8 µM [rising, single point] |  |
| CCCN(CC1CC1)c1nc(N)c2c(N)nc(OC)cc2c1C#N | 11.6 µM [falling, partial curve, poor fit] | 7.31 µM [rising, partial curve, poor fit] |
| O=C(CCn1c(=O)sc2ccccc21)Nc1cccnc1 | 0.103 µM [rising, full curve, poor fit] |  |
| C[C@@]12C(=O)N(c3ccc(Br)cc3)C(=O)N1[C@@H]1c3ccccc3OC[C@@H]1[C@H]2c1ccccc1 | 25.9 µM [falling, partial curve, poor fit] |  |
| c1ccc(-c2nc3nonc3c3nc4ccccc4n23)cc1 | 3.55 µM [falling, full curve, poor fit] |  |
| COc1ccc(-c2cc3nc(C)c(CCC(=O)NC(C)CCc4ccco4)c(C)n3n2)c(OC)c1 (stereo unspecified) | 6.51 µM [falling, partial curve] |  |
| Cc1ccc(NC2=C(Cl)C(=O)OC2OC(=O)c2ccccc2C)cc1 (stereo unspecified) | 25.1 µM [falling, single point] |  |
| O=C(O)c1ccc(N=Nc2c(O)ccc3ncccc23)cc1 | 0.447 µM [falling, full curve] |  |
| O=C(COc1ccc(Cl)cc1Cl)N1CCCCCC1 | 6.31 µM [rising, partial curve] |  |
| Cc1nc2ccccc2cc1C(=O)N/N=C/c1ccc([N+](=O)[O-])cc1 | 3.26 µM [rising, full curve, poor fit] |  |
| CCC1=C(OC(=O)N(CC)CC)N2C(=O)OC(=NCCc3c[nH]c4ccccc34)[C@]2(Cc2ccccc2)[C@H]2C1=CC[C@H]1C(=O)N(C)C(=O)[C@H]12 | 11.2 µM [falling, single point] |  |
| C=C(C)C(=O)N1CC2(CC(c3cccc(NC(=O)/C=C\C=C/C)c3)=NO2)C[C@H]1C(N)=O (stereo partly specified) | 20 µM [falling, partial curve, poor fit] |  |
| CCN(C(=O)CN1C(=O)c2ccc([N+](=O)[O-])cc2C1=O)C1CCCCC1 | 14.1 µM [rising, single point] |  |
| CC(Cc1c[nH]c2ccccc12)NC(=O)C1CCCNC1=O (stereo unspecified) | 17.8 µM [falling, partial curve] |  |
| CCN(CC(=O)Nc1ccc(NC(C)=O)cc1)C(=O)/C=C/c1cn(Cc2ccccc2)nc1-c1cccnc1 | 0.116 µM [rising, full curve, poor fit] |  |

Pulled by structure from the list above, 2 records:

| Compound | AC50 [1] | AC50 (measured here: IkBa-CBG green luminescence) |
| --- | --- | --- |
| Nc1ccc(C(=O)Nc2ccc3nc(-c4cccnc4)[nH]c3c2)cc1 | 1.58 µM [falling, partial curve] |  |
| C[C@@]12C(=O)N(c3ccc(Br)cc3)C(=O)N1[C@@H]1c3ccccc3OC[C@@H]1[C@H]2c1ccccc1 | 25.9 µM [falling, partial curve, poor fit] |  |
